Protein sequences, listed by entry. Tags and fused reporters are not part of them.
UniProt Q01196, whole entry: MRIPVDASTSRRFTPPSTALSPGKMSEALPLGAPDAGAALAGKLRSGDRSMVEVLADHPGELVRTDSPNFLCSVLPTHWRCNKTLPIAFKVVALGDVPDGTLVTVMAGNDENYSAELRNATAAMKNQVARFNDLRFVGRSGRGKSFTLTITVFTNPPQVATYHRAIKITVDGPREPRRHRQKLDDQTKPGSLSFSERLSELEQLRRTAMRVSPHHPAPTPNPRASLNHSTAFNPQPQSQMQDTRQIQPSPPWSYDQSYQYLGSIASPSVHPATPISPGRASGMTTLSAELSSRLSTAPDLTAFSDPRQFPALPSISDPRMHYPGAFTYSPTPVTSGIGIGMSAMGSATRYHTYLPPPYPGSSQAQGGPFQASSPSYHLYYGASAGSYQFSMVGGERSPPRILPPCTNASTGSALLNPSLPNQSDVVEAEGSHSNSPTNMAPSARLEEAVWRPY

According to publication PMC1950574:

Tests used:
RUNX1 (AML1) [1] = target: RUNX1 (AML1) (UniProt Q01196); test: competition with a labelled probe; conditions: protein in an extract
RUNX1 (AML1) [2] = target: RUNX1 (AML1) (UniProt Q01196); test: EMSA; conditions: direct labeled probe, compared with wt; Promega Gel Shift Assay System, HL60 nuclear extract, 6% polyacrylamide TBE gel; binding buffer composition, pH and temperature not stated; protein in an extract; label: 32P 5'-end (probe), unlabeled as competitor
RUNX1 (AML1) [3] = target: RUNX1 (AML1) (UniProt Q01196); test: EMSA supershift; conditions: anti-RUNX1 supershift, anti-ATF-2 control gave none; Promega Gel Shift Assay System, HL60 nuclear extract, 6% polyacrylamide TBE gel; binding buffer composition, pH and temperature not stated; protein in an extract; label: 32P 5'-end (probe), unlabeled as competitor

TTGAACGTCACATCTTTAAC (double strand) [unspecific competitor]
binding result (RUNX1 (AML1) [1]; unlabeled 100x vs labeled wt probe): no binding

CTCTTGTGACCAGCACTCAT (double strand) [CXCR1 intron RUNX1 site, SNP1 (variant 1, 217C/G)]
binding result (RUNX1 (AML1) [1]; unlabeled SNP1 10-100x vs labeled wt probe, label: 32P 5'-end (probe), unlabeled as competitor): binds more weakly
binding result (RUNX1 (AML1) [2]): binds more weakly

CTCTTGTGACCACCACTCAT (double strand) [CXCR1 intron RUNX1 site, common allele (wt)]
binding result (RUNX1 (AML1) [1]; unlabeled wt 10-100x vs labeled wt probe, label: 32P 5'-end (probe), unlabeled as competitor): binds
binding result (RUNX1 (AML1) [3]): binds

The exact form of at least one protein or probe is not confirmed. Results from cells or extracts need not show a direct contact. For some assays here: A negative result means that nothing was seen under these conditions. For some assays here: Weaker means in comparison with the reference protein, sequence or condition of that experiment.
